Experimental data from doi:10.1101/772699.

Chains of the proteins cited; added tags and fusions are not shown. Lines headed by an entry give the natural chain unless they say otherwise; changes in a name come on top.
UniProt P35631: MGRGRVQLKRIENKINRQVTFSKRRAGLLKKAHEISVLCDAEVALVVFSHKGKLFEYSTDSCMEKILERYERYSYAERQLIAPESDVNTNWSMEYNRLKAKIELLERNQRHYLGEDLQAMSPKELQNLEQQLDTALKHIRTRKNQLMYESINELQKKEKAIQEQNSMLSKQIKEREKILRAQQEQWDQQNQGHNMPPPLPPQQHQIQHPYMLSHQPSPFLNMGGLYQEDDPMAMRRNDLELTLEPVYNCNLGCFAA
UniProt O22456: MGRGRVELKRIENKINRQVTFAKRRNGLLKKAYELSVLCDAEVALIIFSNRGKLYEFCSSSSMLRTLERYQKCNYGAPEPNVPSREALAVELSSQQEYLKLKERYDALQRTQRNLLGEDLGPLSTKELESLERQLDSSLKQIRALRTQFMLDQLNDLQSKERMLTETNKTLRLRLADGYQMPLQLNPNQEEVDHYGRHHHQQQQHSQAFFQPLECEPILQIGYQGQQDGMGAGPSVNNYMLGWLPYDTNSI

Tests used:
[1] = target: AP1 (Arabidopsis thaliana) (UniProt P35631); experiment: EMSA; conditions: protein translated in vitro
[2] = target: SEP3 (Arabidopsis thaliana) (UniProt O22456); experiment: EMSA; conditions: no SAP54 (BSA added); protein translated in vitro; residues 1-251

TCGAGGTCGATAAAACGGCAAGGAGAATTATATTTTTATGATGAACATATCGACGGTATCGATAAGCTTGATGAAATTTAATTATATTCCAAATAAGGAAAGTATGGAACGTTATCGAATTCCTGCAGCCCGGGGGATCCACTAGTTCTAG (double strand) [one-CArG-box probe]
binding result ([1]; results similar to SEP3, SAP54 gives no supershift): binds

TCGAGGTCGGAAATTTAATTATATTCCAAATAAGGAAAGTATGGAACGTTCGACGGTATCGATAAGCTTGATGAAATTTAATTATATTCCAAATAAGGAAAGTATGGAACGTTATCGAATTCCTGCAGCCCGGGGGATCCACTAGTTCTAG (double strand) [two-CArG-box probe]
binding result ([1]; no SAP54): binds | binding result [2]: binds

For at least one entry, the source does not settle the construct or the ends of the probe. For part of these data: At least one verdict was read from the data and is not stated in words by the source.
